Here are results for one molecule from patent US5955576A, “Inhibitors of thrombosis” (Corvas International, Inc., priority 1995, dated 1999).

Protein sequences, listed by entry. Tags and fused reporters are not part of them. Residues count along the entry.
UniProt P00742, 235-488 limits assumed: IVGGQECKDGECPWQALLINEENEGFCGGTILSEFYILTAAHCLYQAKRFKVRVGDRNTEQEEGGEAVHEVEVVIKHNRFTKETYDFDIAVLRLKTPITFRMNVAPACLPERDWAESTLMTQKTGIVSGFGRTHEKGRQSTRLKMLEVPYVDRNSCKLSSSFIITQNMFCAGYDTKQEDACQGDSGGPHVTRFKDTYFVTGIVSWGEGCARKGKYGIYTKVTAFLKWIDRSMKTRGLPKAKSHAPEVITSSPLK
UniProt P00742, 41-179 partner limits assumed: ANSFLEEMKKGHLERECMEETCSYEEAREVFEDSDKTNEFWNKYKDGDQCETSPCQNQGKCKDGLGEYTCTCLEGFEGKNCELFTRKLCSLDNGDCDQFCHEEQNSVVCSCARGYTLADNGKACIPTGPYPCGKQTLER
UniProt P00747, 581-810 limits assumed: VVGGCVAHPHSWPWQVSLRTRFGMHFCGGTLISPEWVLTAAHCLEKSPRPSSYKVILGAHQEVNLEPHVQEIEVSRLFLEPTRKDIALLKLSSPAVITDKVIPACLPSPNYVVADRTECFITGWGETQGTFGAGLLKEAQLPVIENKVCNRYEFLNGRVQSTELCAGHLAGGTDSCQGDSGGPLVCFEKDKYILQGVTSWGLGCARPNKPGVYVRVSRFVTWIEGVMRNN
UniProt P00747, 97-580 partner limits assumed: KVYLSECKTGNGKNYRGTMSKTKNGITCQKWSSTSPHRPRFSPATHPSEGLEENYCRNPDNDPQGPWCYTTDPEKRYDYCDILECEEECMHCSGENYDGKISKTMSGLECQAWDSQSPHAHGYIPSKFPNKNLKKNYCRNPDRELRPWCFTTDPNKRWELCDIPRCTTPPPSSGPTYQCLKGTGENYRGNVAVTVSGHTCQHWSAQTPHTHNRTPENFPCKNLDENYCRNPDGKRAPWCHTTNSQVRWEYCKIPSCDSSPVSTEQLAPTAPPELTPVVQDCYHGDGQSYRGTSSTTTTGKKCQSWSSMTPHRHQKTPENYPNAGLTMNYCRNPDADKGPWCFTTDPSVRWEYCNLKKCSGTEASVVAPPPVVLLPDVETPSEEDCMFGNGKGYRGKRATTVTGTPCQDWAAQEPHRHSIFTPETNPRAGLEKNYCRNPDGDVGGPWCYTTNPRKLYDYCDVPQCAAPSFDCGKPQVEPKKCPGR

As usually defined, the IC50 is the concentration needed to halve the response being measured.

The target in experiment [1] is factor Xa (Homo sapiens, UniProt P00742). The experiment in a line: Factor Xa assay, chromogenic substrate S2765. Particulars: read-out: IC50 FXa; purified human enzyme, 30 minute incubation, HBSA pH 7.5.
Experiment [2] deals with plasmin (Homo sapiens, UniProt P00747). The experiment in a line: Plasmin assay, chromogenic substrate S-2251. It is filed as biochemical. Particulars: read-out: IC50 Plasmin; purified human enzyme, 30 minute incubation, HBSA pH 7.5.

The structures given here were assigned with low confidence; some may be wrong.

As for `N=C(N)NCCC[C@@H](C=O)NC(=O)[C@@H]1CCCN1C(=O)[C@H](Cc1nnn[nH]1)NC(=O)CCC1CCCCC1`, the IC50 came out at 17 nM in experiment [1] and 48 nM in experiment [2].
